The whole screen tested about 1,900 compounds, of which about 250 (13%) were called active. Another 4% or so got no clear call; they are omitted.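 Rule for the calls: active = fitted curve reaches 40% rescue activity at or below the top valid dose, in every test run; inconclusive = test runs disagree, some active and some inactive; inactive = every run misses the threshold or moves the wrong way.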 Only a part is listed here, and it is no random draw. Potency and affinity values are given separately.
Assay: rescue of simvastatin-induced ATP loss – cell-based, C2C12 myotubes, ATP luminescence, cherry pick, dose response (AID 624405);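 note: myotubes are challenged with simvastatin at 10 µM to lower ATP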
Details: 48 h, scaled: DMSO wells 0, geranylgeraniol wells 100; at 19.5 µM (top of the series) unless noted

| Structure (SMILES) | rescue activity (ATP increase) |
| --- | --- |
| CC(C)(C)C(=O)COC(=O)CNC(=O)c1ccc(Oc2ccccc2)cc1 | inactive: 0.797% |
| Cc1ccc(S(=O)(=O)Nc2ccc3c(c2)CC(=O)N([C@H](C)CO)C[C@@H](C)[C@@H](CN(C)Cc2ccc(C(F)(F)F)cc2)O3)cc1 | inactive: 2% [at 21 µM] |
| COc1cccc(-n2nnnc2SCC(=O)NCCc2ccccc2)c1 | inactive: 19.2% |
| COc1ccc(S(=O)(=O)Nc2ccc3c(c2)C(=O)N([C@@H](C)CO)C[C@@H](C)[C@@H](CN(C)S(=O)(=O)c2cccs2)OCCCC[C@H](C)O3)cc1 | inactive: 20.6% |
| Cc1cc2c(c(=O)n1Cc1cccnc1)C(c1ccc(F)cc1)C(C#N)=C(N)O2 (configuration not stated) | inactive: -9.08% |
| CCn1c(SCC(=O)N2CCCC2)nnc1-c1ccc(N)cc1 | inactive: -11.8% |
| COc1ccc(C(=O)Nc2n[nH]c(-c3ccncc3)n2)cc1 | inactive: 3.41% |
| O=C(Nc1ccccc1Cl)N1C[C@@H]2[C@H](c3ccccc31)[C@H](CO)N2Cc1ccccc1 | inactive: 0.273% |
| COc1ccc(S(=O)(=O)Nc2cccc3c2O[C@H](CN(C)C)[C@@H](C)CN([C@H](C)CO)C3=O)cc1 | inactive: -3.17% |
| C[C@H](CO)N1C[C@H](C)[C@@H](CN(C)Cc2ccc(Oc3ccccc3)cc2)Oc2ccc(NC(=O)Nc3ccccc3)cc2CC1=O | inactive: 20.1% |
| C[C@H]1CCCCO[C@@H](CN(C)S(=O)(=O)c2cccs2)[C@@H](C)CN([C@@H](C)CO)C(=O)c2cc(NC(=O)Nc3ccc(F)cc3)ccc2O1 | inactive: -14.9% |
| C[C@H]1CN([C@@H](C)CO)C(=O)c2cc(NC(=O)Cc3cn(C)c4ccccc34)ccc2O[C@H]1CN(C)S(=O)(=O)c1cccs1 | inactive: 21.2% |
| O=C(Nc1cccc(C(F)(F)F)c1)C1CCN(S(=O)(=O)c2cnc[nH]2)CC1 | inactive: -67% |
| CCc1nc(SCC(=O)Nc2cc(C)on2)c2c(C)c(C)sc2n1 | inactive: -7.85% |
| C[C@H]1CN([C@@H](C)CO)C(=O)c2cccc(NS(=O)(=O)c3cccs3)c2O[C@@H]1CN(C)Cc1ccc(Oc2ccccc2)cc1 | inactive: 10.6% |
| C[C@@H]1CCCCO[C@@H](CN(C)Cc2ccc(C(F)(F)F)cc2)[C@H](C)CN([C@@H](C)CO)C(=O)c2cc(NC(=O)c3ccncc3)ccc2O1 | inactive: 24.7% |
| COC(=O)c1cn(Cc2ccc(C(F)(F)F)cc2)cc(F)c1=O | inactive: -11.3% |
| C[C@H]1CN([C@@H](C)CO)C(=O)c2cc(C#Cc3cccc(F)c3)cnc2O[C@@H]1CN(C)C(=O)C1CCCCC1 | inactive: 24.4% |
| C=C(C)COc1ccc2oc(C)c(C(=O)OCCOC)c2c1 | inactive: 7.84% |

| Structure (SMILES) | rescue activity (ATP increase) |
| --- | --- |
| Cc1noc(C)c1NC(=O)Nc1ccc2c(c1)C(=O)N([C@H](C)CO)C[C@@H](C)[C@H](CN(C)C(=O)Nc1ccccc1)OCCCC[C@@H](C)O2 | inactive: 2.09% |
| CN1C[C@@H]2[C@H](c3ccccc31)[C@H](CO)N2Cc1ccccc1Cl | inactive: -6.34% |
| Cc1csc2ncc(C(=O)Nc3cccc(C(F)(F)F)c3)c(=O)n12 | inactive: -19.3% |
| OC[C@H]1[C@H]2c3ccccc3NC[C@H]2N1Cc1ccccc1Cl | inactive: -8.25% |
| Cc1noc(C)c1NC(=O)Nc1cccc2c1O[C@@H](CN(C)Cc1ccc(-c3ccccc3)cc1)[C@H](C)CN([C@@H](C)CO)C2=O | inactive: 8.68% |
| O=C(O)C1CC=CCC1C(=O)NCCc1ccccc1 (configuration not stated) | inactive: 12% |
| COc1ccc(S(=O)(=O)Nc2ccc3c(c2)C(=O)N([C@@H](C)CO)C[C@@H](C)[C@@H](CN(C)S(=O)(=O)c2ccc(F)cc2)OCCCC[C@@H](C)O3)cc1 | inactive: 33.6% |
| C=CCSc1nnc(-c2cc3c(s2)-c2ccccc2CC3)o1 | inactive: 6.74% |
| CCOC(=O)C(=CNCC(=O)OC)C(=O)OCC | inactive: 22.5% |
| Clc1ccc(Sc2oc(/C=N/n3cnnc3)cc2Br)cc1 | inactive: 56% |
| Cc1noc(C)c1S(=O)(=O)Nc1ccc2c(c1)C(=O)N([C@@H](C)CO)C[C@H](C)[C@H](CN(C)S(=O)(=O)c1ccc(Cl)cc1)OCCCC[C@@H](C)O2 | inactive: 17% |
| Fc1ccc(CSc2ncnc3nc[nH]c23)cc1 | inactive: -44.9% [at 10 µM] |
| COc1ccc2c(c1)N(C)C(=O)CC(c1ccccc1)=N2 | inactive: -4.84% |
| O=C(CN1CCN(c2ccccn2)CC1)Nc1ccc(F)cc1 | inactive: -68.8% [at 10 µM] |
| COc1ccc(S(=O)(=O)Nc2ccc3c(c2)C(=O)N([C@@H](C)CO)C[C@H](C)[C@@H](CN(C)S(=O)(=O)c2ccc(F)cc2)OCCCC[C@@H](C)O3)cc1 | inactive: 17.1% |
| Cc1cc(NC(=O)COC(=O)C2CCN(S(=O)(=O)c3c(Cl)cccc3Cl)CC2)no1 | inactive: 26.2% |
| C[C@H]1CN([C@@H](C)CO)C(=O)c2cc(C3=CCCCC3)cnc2O[C@@H]1CN(C)Cc1ccccc1F | inactive: 14.8% |
| Cc1cc(Oc2ccccc2)nc(-c2ccccc2O)n1 | inactive: -24.2% |

Rewritten with each value named: three of the compounds above
CN1C[C@@H]2[C@H](c3ccccc31)[C@H](CO)N2Cc1ccccc1Cl
  rescue activity (ATP increase): inactive: -6.34%
Cc1csc2ncc(C(=O)Nc3cccc(C(F)(F)F)c3)c(=O)n12
  rescue activity (ATP increase): inactive: -19.3%
OC[C@H]1[C@H]2c3ccccc3NC[C@H]2N1Cc1ccccc1Cl
  rescue activity (ATP increase): inactive: -8.25%

Reference: PubChem BioAssay AID624405 (Broad Institute, 2012)
